These are yes or no findings as the source states them, for the method shown. In cells and extracts the contact can be indirect. These calls come from enrichment with a bait or labelling near it, and not all partners need be listed.
B1: LIS1 (endogenous) (protein, UniProt P43034 1-410)
chain: MVLSQRQRDELNRAIADYLRSNGYEEAYSVFKKEAELDVNEELDKKYAGLLEKKWTSVIRLQKKVMELESKLNEAKEEFTSGGPLGQKRDPKEWIPRPPEKYALSGHRSPVTRVIFHPVFSVMVSASEDATIKVWDYETGDFERTLKGHTDSVQDISFDHSGKLLASCSADMTIKLWDFQGFECIRTMHGHDHNVSSVAIMPNGDHIVSASRDKTIKMWEVQTGYCVKTFTGHREWVRMVRPNQDGTLIASCSNDQTVRVWVVATKECKAELREHEHVVECISWAPESSYSSISEATGSETKKSGKPGPFLLSGSRDKTIKMWDVSTGMCLMTLVGHDNWVRGVLFHSGGKFILSCADDKTLRVWDYKNKRCMKTLNAHEHFVTSLDFHKTAPYVVTGSVDQTVKVWECR
B2: WDR1 (endogenous) (protein, UniProt O75083 1-606)
chain: MPYEIKKVFASLPQVERGVSKIIGGDPKGNNFLYTNGKCVILRNIDNPALADIYTEHAHQVVVAKYAPSGFYIASGDVSGKLRIWDTTQKEHLLKYEYQPFAGKIKDIAWTEDSKRIAVVGEGREKFGAVFLWDSGSSVGEITGHNKVINSVDIKQSRPYRLATGSDDNCAAFFEGPPFKFKFTIGDHSRFVNCVRFSPDGNRFATASADGQIYIYDGKTGEKVCALGGSKAHDGGIYAISWSPDSTHLLSASGDKTSKIWDVSVNSVVSTFPMGSTVLDQQLGCLWQKDHLLSVSLSGYINYLDRNNPSKPLHVIKGHSKSIQCLTVHKNGGKSYIYSGSHDGHINYWDSETGENDSFAGKGHTNQVSRMTVDESGQLISCSMDDTVRYTSLMLRDYSGQGVVKLDVQPKCVAVGPGGYAVVVCIGQIVLLKDQRKCFSIDNPGYEPEVVAVHPGGDTVAIGGVDGNVRLYSILGTTLKDEGKLLEAKGPVTDVAYSHDGAFLAVCDASKVVTVFSVADGYSENNVFYGHHAKIVCLAWSPDNEHFASGGMDMMVYVWTLSDPETRVKIQDAHRLHHVSSLAWLDEHTLVTTSHDASVKEWTITY

Protein sequences, listed by entry. Tags and fused reporters are not part of them.
UniProt Q13620: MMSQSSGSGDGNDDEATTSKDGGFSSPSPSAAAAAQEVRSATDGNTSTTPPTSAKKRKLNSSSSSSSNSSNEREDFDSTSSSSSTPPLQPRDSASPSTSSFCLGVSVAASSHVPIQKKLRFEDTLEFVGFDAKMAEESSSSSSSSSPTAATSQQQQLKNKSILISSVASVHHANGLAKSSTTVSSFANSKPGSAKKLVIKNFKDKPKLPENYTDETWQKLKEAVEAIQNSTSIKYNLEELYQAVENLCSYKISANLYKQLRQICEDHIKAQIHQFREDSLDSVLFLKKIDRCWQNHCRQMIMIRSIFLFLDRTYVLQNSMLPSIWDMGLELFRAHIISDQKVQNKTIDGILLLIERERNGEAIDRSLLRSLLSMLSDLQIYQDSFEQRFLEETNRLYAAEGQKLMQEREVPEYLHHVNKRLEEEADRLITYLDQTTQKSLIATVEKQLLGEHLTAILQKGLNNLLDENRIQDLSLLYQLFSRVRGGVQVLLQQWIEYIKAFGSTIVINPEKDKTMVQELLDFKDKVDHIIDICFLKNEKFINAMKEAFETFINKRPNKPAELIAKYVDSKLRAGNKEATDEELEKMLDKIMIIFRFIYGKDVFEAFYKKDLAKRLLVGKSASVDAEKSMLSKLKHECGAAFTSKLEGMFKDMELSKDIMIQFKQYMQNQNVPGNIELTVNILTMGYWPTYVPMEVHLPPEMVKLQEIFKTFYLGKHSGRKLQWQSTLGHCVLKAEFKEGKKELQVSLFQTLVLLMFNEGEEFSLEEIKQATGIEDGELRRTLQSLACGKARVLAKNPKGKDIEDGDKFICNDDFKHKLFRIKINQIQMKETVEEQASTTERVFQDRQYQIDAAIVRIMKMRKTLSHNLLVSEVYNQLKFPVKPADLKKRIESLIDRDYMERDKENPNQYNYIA

Target: HA-tagged CUL4B, wild type (endogenously tagged) (human (endogenous in HeLa Kyoto)) (UniProt Q13620)
Assay: affinity purification with mass spectrometry

Binder	binding
B1	binds
B2	binds
